Source: article PMC4207760

B1: GFP-tagged wild-type Dab1 (protein, UniProt P97318 1-588)
chain: MSTETELQVAVKTSAKKDSRKKGQDRSEATLIKRFKGEGVRYKAKLIGIDEVSAARGDKLCQDSMMKLKGVVAGARSKGEHKQKIFLTISFGGIKIFDEKTGALQHHHAVHEISYIAKDITDHRAFGYVCGKEGNHRFVAIKTAQAAEPVILDLRDLFQLIYELKQREELEKKAQKDKQCEQAVYQTILEEDVEDPVYQYIVFEAGHEPIRDPETEENIYQVPTSQKKEGVYDVPKSQPNSQPLEDFESRFAAATPNRNLSMDFDELLEATKVSAVTQLELFGDMSTPPDITSPPTPATPGDAFLPSSSQTLPGSADVFGSMSFGTAAVPSGYVAMGAVLPSFWGQQPLVQQQIAMGAQPPVAQVIPGAQPIAWGQPGLFPATQQAWPTVAGQFPPAAFMPTQTVMPLAAAMFQGPLTPLATVPGTNDSARSSPQSDKPRQKMGKESFKDFQMVQPPPVPSRKPDQPSLTCTSEAFSSYFNKVGVAQDTDDCDDFDISQLNLTPVTSTTPSTNSPPTPAPRQSSPSKSSASHVSDPTADDIFEEGFESPSKSEEQEAPDGSQASSTSDPFGEPSGEPSGDNISPQDGS

Legend:
[1] = target: T1, GFP-tagged wild-type Dab1 (UniProt P97318); test: co-IP; COS7 cells co-transfected with double-tagged ApoER2 and Fyn, Dab1-GFP, or both; lysates in IP buffer (50 mM Tris-HCl pH 8.0, 4.5 mM NaCl, 1% Nonidet P-40); IP with anti-GFP (Dab1) and blot for HA (ApoER2), or IP with anti-HA (ApoER2) and blot for Dab1-GFP; rabbit or mouse IgG as control; also after DMSO or 10 uM PP2 for 6 hours
T1 sequence: B1 chain

[2] = target: Double-tagged ApoER2 (HA-ApoER2-myc), wild-type murine Apolipoprotein E Receptor 2 (mouse); test: as above

| Molecule | binding [1] | binding [2] |
| --- | --- | --- |
| Double-tagged ApoER2 (HA-ApoER2-myc), wild-type murine Apolipoprotein E Receptor 2 (mouse) | binds | – |
| B1 | – | binds |

These are yes or no findings as the source states them, for the method shown. In cells and extracts the contact can be indirect. A result given as binding can be weak or reduced; the word gives no strength. Sequences can lack the tags named with a protein.
